Source: PubChem BioAssay AID1259405 (NCATS, 2018)

Assay: 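Silenced genes that increase secreted GFP made by CHO cells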 (primary screen)
Cell system: Chinese hamster CHO-K1 ovary cells with stable secreted eGFP expression
Reagents: single siRNA against mouse genes, 0.8 pmol siRNA per well (2 µl of 400 nM stock)
Duration: 3 days
Detection: 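Per-well intracellular GFP measured by laser scanning cytometry, plus viability from ATP luminescence, each relative to plate median of non-targeting control wells, in %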
Scale: GFP, % of control: higher = more GFP per well, higher productivity; viability (ATP), % of control: higher = more viable cells (more ATP)
Active means: 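a knock-down is called active if GFP reaches 120% or more of non-targeting control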
This is one part, drawn at random, of about 50,000 reagents. Over the whole deposit, about 4,000 (8%) got an active call. 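Mouse siRNA library applied to hamster cells; one well for each siRNA.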 Entries without a mark were called inactive. The numbers tell different reagents against one gene apart.

gene knocked down | reagent no. | GFP, % of control | viability (ATP), % of control
Or5d16 (GeneID 258636) | 1 | 87.2 | 121
Or5d16 (GeneID 258636) | 2 | 57.3 | 66
Or5d16 (GeneID 258636) | 3 | 37 | 42.3
Acbd4 (GeneID 67131) | 1 | 72.9 | 63.4
Acbd4 (GeneID 67131) | 2 | 103 | 67.8
Acbd4 (GeneID 67131) | 3 | 60.8 | 62.5
Nol4 (GeneID 319211) | 1 | 106 | 82.3
Nol4 (GeneID 319211) | 2 | 61.7 | 27.3
Nol4 (GeneID 319211) | 3 | 75.1 | 63.3
Gstt4 (GeneID 75886) | 1 | 95.5 | 62.8
Gstt4 (GeneID 75886) | 2 | 40.5 | 64.7
Gstt4 (GeneID 75886) | 3 | 60.9 | 58.1
Arhgef18 (GeneID 102098) | 1 | 74 | 80.8
Arhgef18 (GeneID 102098) | 2 | 107 | 51.4
Arhgef18 (GeneID 102098) | 3 | 46.5 | 79.4
Slf1 (GeneID 105377) | 1 | 100 | 96.7
Slf1 (GeneID 105377) | 2 | 76.9 | 86.3
Slf1 (GeneID 105377) | 3 | 61.5 | 48.7
Nexn (GeneID 68810) | 1 | 62.4 | 38
Nexn (GeneID 68810) | 2 | 96.5 | 92.9
Nexn (GeneID 68810) | 3 | 97.1 | 77.5
Zim1 (GeneID 22776) | 1 | 33.3 | 38.6
Zim1 (GeneID 22776) | 2 | 71.1 | 92.2
Zim1 (GeneID 22776) | 3 | 91.5 | 85.3
Tomm34 (GeneID 67145) | 1 | 92.7 | 117
Tomm34 (GeneID 67145) | 2 | 82.4 | 70.2
Ralgds (GeneID 19730) | 1 | 101 | 79.8
Ralgds (GeneID 19730) | 2 | 107 | 98.8
Ralgds (GeneID 19730) | 3 | 50.1 | 69.3
Pcsk2 (GeneID 18549) | 1 | 98.6 | 93.9
Pcsk2 (GeneID 18549) | 2 | 51.8 | 64.5
Pcsk2 (GeneID 18549) | 3 | 61.5 | 65.1
Htr7 (GeneID 15566) | 1 | 120 (active) | 109
Htr7 (GeneID 15566) | 2 | 79.8 | 70.3
Htr7 (GeneID 15566) | 3 | 115 | 76
Zfp353-ps (GeneID 234203) | 1 | 86.2 | 55.8
Zfp353-ps (GeneID 234203) | 2 | 53 | 74.7
Zfp353-ps (GeneID 234203) | 3 | 74 | 73.7
Mtmr11 (GeneID 194126) | 1 | 95.1 | 37
Mtmr11 (GeneID 194126) | 2 | 96.5 | 119
Mtmr11 (GeneID 194126) | 3 | 82.2 | 94.2
Sly (GeneID 382301) | 1 | 82.3 | 46.5
Sly (GeneID 382301) | 2 | 81.5 | 83
Sly (GeneID 382301) | 3 | 79.7 | 84.3
Sergef (GeneID 27414) | 1 | 81.1 | 74.8
Sergef (GeneID 27414) | 2 | 118 | 101
Sergef (GeneID 27414) | 3 | 40.9 | 63.3
Zfp428 (GeneID 232969) | 1 | 73.5 | 75.1
Zfp428 (GeneID 232969) | 2 | 108 | 63.3
Zfp428 (GeneID 232969) | 3 | 50.7 | 74.2
Dennd1b (GeneID 329260) | 1 | 55.5 | 53.6
Dennd1b (GeneID 329260) | 2 | 69.1 | 73.6
Dennd1b (GeneID 329260) | 3 | 138 (active) | 116
Or4c110 (GeneID 258451) | 1 | 83.9 | 75
Or4c110 (GeneID 258451) | 2 | 97.5 | 51
Or4c110 (GeneID 258451) | 3 | 65.3 | 105
Atp6v0a1 (GeneID 11975) | 1 | 89.9 | 90
Atp6v0a1 (GeneID 11975) | 2 | 57.9 | 57.2
Atp6v0a1 (GeneID 11975) | 3 | 105 | 93
Adam33 (GeneID 110751) | 1 | 55.5 | 61.2
Adam33 (GeneID 110751) | 2 | 39.2 | 66.3
Adam33 (GeneID 110751) | 3 | 101 | 86.7
Capn8 (GeneID 170725) | 1 | 68.3 | 72.1
Capn8 (GeneID 170725) | 2 | 70.1 | 72.8
Capn8 (GeneID 170725) | 3 | 85.5 | 69.3
Tmem86b (GeneID 68255) | 1 | 42.6 | 48.4
Tmem86b (GeneID 68255) | 2 | 144 (active) | 108
Or2y17 (GeneID 259068) | 1 | 140 (active) | 45.6
Or2y17 (GeneID 259068) | 2 | 110 | 65.3
Or2y17 (GeneID 259068) | 3 | 52 | 102
Fbxl4 (GeneID 269514) | 1 | 106 | 105
Fbxl4 (GeneID 269514) | 2 | 68.9 | 77.1
Fbxl4 (GeneID 269514) | 3 | 112 | 80.1
1700034H15Rik (GeneID 98736) | 1 | 69.6 | 69.2
1700034H15Rik (GeneID 98736) | 2 | 49.2 | 55.5
1700034H15Rik (GeneID 98736) | 3 | 60.5 | 76.8
Cpsf1 (GeneID 94230) | 1 | 122 (active) | 95.1
Cpsf1 (GeneID 94230) | 2 | 30.3 | 19.5
Cpsf1 (GeneID 94230) | 3 | 62.8 | 81.8
Hyal5 (GeneID 74468) | 1 | 101 | 99.8
Hyal5 (GeneID 74468) | 2 | 52.6 | 65.3
Hyal5 (GeneID 74468) | 3 | 100 | 126
Srp54a (GeneID 24067) | 1 | 94.5 | 97.8
Srp54a (GeneID 24067) | 2 | 122 (active) | 89.1
Srp54a (GeneID 24067) | 3 | 73.9 | 49.7
Strap (GeneID 20901) | 1 | 71.6 | 32.5
Strap (GeneID 20901) | 2 | 65.4 | 84.7
Strap (GeneID 20901) | 3 | 196 (active) | 87.7
Bnip5 (GeneID 207819) | 1 | 106 | 68.8
Bnip5 (GeneID 207819) | 2 | 64.2 | 44.2
Bnip5 (GeneID 207819) | 3 | 81.6 | 85.5
Fermt2 (GeneID 218952) | 1 | 95.8 | 76.1
Fermt2 (GeneID 218952) | 2 | 39.3 | 77.2
Fermt2 (GeneID 218952) | 3 | 74.9 | 91.7
Arl15 (GeneID 218639) | 1 | 61.9 | 87.7
Arl15 (GeneID 218639) | 2 | 57 | 49.9
Arl15 (GeneID 218639) | 3 | 65.2 | 64
Grik4 (GeneID 110637) | 1 | 86.2 | 90.5
Grik4 (GeneID 110637) | 2 | 66.2 | 72.6
Grik4 (GeneID 110637) | 3 | 67.1 | 50.8
Prkaa2 (GeneID 108079) | 1 | 124 (active) | 64.1
Tnfaip3 (GeneID 21929) | 1 | 69.5 | 69.4
Tnfaip3 (GeneID 21929) | 2 | 91 | 86.8
Tnfaip3 (GeneID 21929) | 3 | 73.2 | 53.1
P2rx4 (GeneID 18438) | 1 | 79.9 | 80.4
P2rx4 (GeneID 18438) | 2 | 64.3 | 63.1
P2rx4 (GeneID 18438) | 3 | 79.7 | 89.1

Active calls, of those listed so far:
gene knocked down | reagent no. | GFP, % of control | viability (ATP), % of control
Htr7 (GeneID 15566) | 1 | 120 (active) | 109
Dennd1b (GeneID 329260) | 3 | 138 (active) | 116
Tmem86b (GeneID 68255) | 2 | 144 (active) | 108
Or2y17 (GeneID 259068) | 1 | 140 (active) | 45.6
Cpsf1 (GeneID 94230) | 1 | 122 (active) | 95.1
Srp54a (GeneID 24067) | 2 | 122 (active) | 89.1
Strap (GeneID 20901) | 3 | 196 (active) | 87.7
Prkaa2 (GeneID 108079) | 1 | 124 (active) | 64.1
